Where a name gives a salt, the structure may show the parent alone. The list shows a part of the results. Rule as the data show it: active = 0.7 or more and inactive = the rest. Single values are uncertain, as repeats are few or missing.
Tested on: MiaPaCa-2 CLSA-25
Assay: cell death relative to DMSO vehicle (fraction); higher = more cytotoxic
Conditions: 5 µM; treatment time 48 h; medium cystine 25 µM

| Compound | cell death |
| --- | --- |
| C/C=C/C#CC#C/C=C/c1ccco1 [Atractylodin] | inactive: 0.15 |
| CC(C)(OCc1nn(Cc2ccccc2)c2ccccc12)C(=O)O [Bindarit] | active: 0.703 |
| COc1ccc2c(c1)[nH]c1c(C)nccc12 [Harmine] | inactive: 0.324 |
| OCC1OC(O)CC(O)C1O [2-Deoxy-D-glucose] | inactive: 0.198 |
| N=C(N)NC(=N)NCCc1ccccc1 [Phenformin hydrochloride] | inactive: 0.316 |
| COc1ccc2c(c1)c(CC(=O)O)c(C)n2C(=O)c1ccc(Cl)cc1 [Indometacin] | inactive: 0.0126 |
| COc1ccccc1OCC(O)COC(N)=O (stereo not given) [Methocarbamol] | inactive: 0.0891 |
| CC(C)(CO)[C@@H](O)C(=O)NCCC(=O)O [D-Pantothenic acid sodium salt] | inactive: 0.464 |
| O=C(NCc1ccc(S(=O)(=O)c2cc(F)cc(F)c2)cc1)c1ccc2nccn2c1 | inactive: 0.683 |
| OC[C@H]1O[C@@H](Oc2ccc(O)cc2)[C@H](O)[C@@H](O)[C@@H]1O [Arbutin] | inactive: 0.139 |
| Cn1nnc(-c2ccc(-c3ccc(N4C[C@H](CO)OC4=O)cc3F)cn2)n1 [Torezolid] | inactive: 0.0276 |
| CN[C@H](CNC(=O)N1CCC[C@@H]([C@@H](OCCNC(=O)OC)c2cccc(Cl)c2)C1)C[C@H]1CCCOC1 | inactive: 0.208 |
| C=CC1=C(C(=O)O)N2C(=O)[C@@H](NC(=O)/C(=N\O)c3csc(N)n3)[C@H]2SC1 [Cefdinir] | inactive: 0.000268 |
| Nc1nc(=O)c2nc(CNc3ccc(C(=O)N[C@@H](CCC(=O)O)C(=O)O)cc3)cnc2[nH]1 [Folic acid] | inactive: -0.0104 |
| NS(=O)(=O)c1ccc(NC(=O)Nc2ccc(F)cc2)cc1 | inactive: 0.112 |
| COc1c2occc2cc2ccc(=O)oc12 [8-Methoxypsoralen] | active: 0.829 |
| O=C(O)c1cc(C(F)(F)F)ccc1N1CC[C@H](OCc2ccccn2)C1 | inactive: 0.582 |
| O=C(Nc1ncc(SCCN2CCCC2)s1)[C@]1(c2ccc(S(=O)(=O)C3CC3)cc2)C[C@H]1C1CCCCC1 | inactive: 0.0581 |

| Compound | cell death |
| --- | --- |
| O=C(Nc1ccc(O)cc1)c1ccccc1O [Osalmid] | inactive: 0.41 |
| CN(C(=O)n1cnc(-c2ccc[n+]([O-])c2)c1)C1CCCCC1 | inactive: 0.13 |
| C=C[C@H]1[C@H](O[C@@H]2O[C@H](CO)[C@@H](O)[C@H](O)[C@H]2O)OC=C2C(=O)OCC[C@]21O [Swertiamarin] | active: 0.729 |
| Oc1cc(O)c(Cl)cn1 [Gimeracil] | active: 0.881 |
| c1ccc([C@H]2CN3CCSC3=N2)cc1 [Levamisole hydrochloride] | inactive: 0.118 |
| OCCN(CCO)c1nc(N2CCCCC2)c2nc(N(CCO)CCO)nc(N3CCCCC3)c2n1 [Dypyridamole] | inactive: 0.303 |
| NCCCC(O)(P(=O)(O)O)P(=O)(O)O [Alendronate sodium hydrate] | inactive: 0.119 |
| COc1ccc(-c2oc3c(CC=C(C)C)c(O[C@@H]4O[C@H](CO)[C@@H](O)[C@H](O)[C@H]4O)cc(O)c3c(=O)c2O[C@@H]2O[C@@H](C)[C@H](O)[C@@H](O)[C@H]2O)cc1 [Icariin] | inactive: 0.00578 |
| CC(C)(Oc1ccc(C2CC2(Cl)Cl)cc1)C(=O)O (stereo not given) [Ciprofibrate] | inactive: -0.0233 |
| CCOC(=O)[C@H](CCc1ccccc1)N[C@H]1CCc2ccccc2N(CC(=O)O)C1=O [Benazepril hydrochloride] | inactive: 0.377 |
| COc1cc(OC)c(C=C2C(=O)Nc3ccccc32)c(OC)c1 | inactive: 0.659 |
| CCCCc1nc(Cl)c(CO)n1Cc1ccc(-c2ccccc2-c2nnn[nH]2)cc1 [Losartan potassium] | inactive: 0.0136 |
| c1ccc(-c2ccc(C(c3ccccc3)n3ccnc3)cc2)cc1 (stereo not given) [Bifonazole] | inactive: 0.189 |
| NC(=O)NCCC[C@H](N)C(=O)O [L-Citrulline] | inactive: 0.152 |
| NC(=O)NS(=O)(=O)c1ccc(N)cc1 [Sulfanilylurea] | inactive: -0.0292 |
| Cn1c(=O)cc(C(=O)Nc2ccc3c(c2)OCCO3)c2ccccc21 | inactive: 0.0843 |
| COc1c(O)cc2oc3cc(O)c(CC=C(C)C)c(O)c3c(=O)c2c1CC=C(C)C [Mangostin] | active: 0.749 |

A few values from the entries so far.
NC(=O)NCCC[C@H](N)C(=O)O [L-Citrulline] | cell death: inactive: 0.152
O=C(Nc1ccc(O)cc1)c1ccccc1O [Osalmid] | cell death: inactive: 0.41
NC(=O)NS(=O)(=O)c1ccc(N)cc1 [Sulfanilylurea] | cell death: inactive: -0.0292

Reference: the supplement of paper PMC12872613
